Reference: patent US5021595A, “Transition metal catalyst composition for olefin polymerization” (Exxon Chemical Patents Inc., priority 1990, dated 1991)

Test: Copolymerization of norbornene type monomers with ethylene/propylene in CFSTR
Settings: 30° C.
Experimental: Polymerization experiments were conducted in a continuous flow stirred tank reactor process wherein norbornene type monomers such as norbornene and 5-ethylidene-2-norbornene (ENB) are copolymerized employing the invention catalysts. The polymerization was conducted under the following conditions:
Ethyl aluminum sesquichloride:
Tetraethoxysilane at .208 gms/hr

Bis hexanoate mono chloro vanadium (+3) [Catalyst Code 1]
Wt % monomer in polymer (Condition A: no norbornene monomer): 0.0 WT % | Wt % monomer in polymer (Condition B: Norbornene at 10.3 gms/hr): 6.4 WT % | Wt % monomer in polymer (Condition C: Norbornene at 20.6 gms/hr): 12.4 WT % | Wt % monomer in polymer (Condition D: ENB at 12.4 gms/hr + Tetraethoxysilane at .208 gms/hr): 9.5 WT %
